Measured values reported in paper PMC6113304.
Numbering of substitutions follows the chain as printed. In names and notes the source's numbering stands. No constants are given. Whether binding was seen depends on the method and setting. Binding seen in cells or lysates may run through a third protein. Some binding calls cover weakened binding; strength is not graded here. For some assays here: Sequences can lack the tags named with a protein. Blank lines part the entries; values can stand above or below the binder they belong to.

The chains behind the UniProt entries cited, without tags or fusion partners. Where a name states a change or a piece, a line headed by the entry shows the natural chain unless it says otherwise.
UniProt P40763: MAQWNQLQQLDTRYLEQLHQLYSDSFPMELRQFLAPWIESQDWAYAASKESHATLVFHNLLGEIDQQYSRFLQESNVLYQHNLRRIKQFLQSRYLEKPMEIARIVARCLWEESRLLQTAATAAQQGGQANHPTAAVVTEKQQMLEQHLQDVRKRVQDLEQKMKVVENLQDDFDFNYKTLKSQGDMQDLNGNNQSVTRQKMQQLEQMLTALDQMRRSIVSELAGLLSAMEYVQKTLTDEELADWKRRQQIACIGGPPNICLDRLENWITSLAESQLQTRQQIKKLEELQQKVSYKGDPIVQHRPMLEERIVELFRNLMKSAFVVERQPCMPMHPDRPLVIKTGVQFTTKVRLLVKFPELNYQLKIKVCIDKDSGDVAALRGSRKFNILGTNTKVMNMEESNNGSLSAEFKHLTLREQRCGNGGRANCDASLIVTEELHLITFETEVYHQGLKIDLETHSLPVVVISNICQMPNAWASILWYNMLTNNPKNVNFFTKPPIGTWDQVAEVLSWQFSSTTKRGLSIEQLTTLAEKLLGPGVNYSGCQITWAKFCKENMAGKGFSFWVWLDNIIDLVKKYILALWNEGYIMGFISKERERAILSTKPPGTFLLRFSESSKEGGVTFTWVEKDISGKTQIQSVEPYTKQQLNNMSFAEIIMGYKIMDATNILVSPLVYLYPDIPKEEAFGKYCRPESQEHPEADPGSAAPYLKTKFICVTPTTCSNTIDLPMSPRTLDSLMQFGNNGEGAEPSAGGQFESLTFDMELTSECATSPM
UniProt O60674: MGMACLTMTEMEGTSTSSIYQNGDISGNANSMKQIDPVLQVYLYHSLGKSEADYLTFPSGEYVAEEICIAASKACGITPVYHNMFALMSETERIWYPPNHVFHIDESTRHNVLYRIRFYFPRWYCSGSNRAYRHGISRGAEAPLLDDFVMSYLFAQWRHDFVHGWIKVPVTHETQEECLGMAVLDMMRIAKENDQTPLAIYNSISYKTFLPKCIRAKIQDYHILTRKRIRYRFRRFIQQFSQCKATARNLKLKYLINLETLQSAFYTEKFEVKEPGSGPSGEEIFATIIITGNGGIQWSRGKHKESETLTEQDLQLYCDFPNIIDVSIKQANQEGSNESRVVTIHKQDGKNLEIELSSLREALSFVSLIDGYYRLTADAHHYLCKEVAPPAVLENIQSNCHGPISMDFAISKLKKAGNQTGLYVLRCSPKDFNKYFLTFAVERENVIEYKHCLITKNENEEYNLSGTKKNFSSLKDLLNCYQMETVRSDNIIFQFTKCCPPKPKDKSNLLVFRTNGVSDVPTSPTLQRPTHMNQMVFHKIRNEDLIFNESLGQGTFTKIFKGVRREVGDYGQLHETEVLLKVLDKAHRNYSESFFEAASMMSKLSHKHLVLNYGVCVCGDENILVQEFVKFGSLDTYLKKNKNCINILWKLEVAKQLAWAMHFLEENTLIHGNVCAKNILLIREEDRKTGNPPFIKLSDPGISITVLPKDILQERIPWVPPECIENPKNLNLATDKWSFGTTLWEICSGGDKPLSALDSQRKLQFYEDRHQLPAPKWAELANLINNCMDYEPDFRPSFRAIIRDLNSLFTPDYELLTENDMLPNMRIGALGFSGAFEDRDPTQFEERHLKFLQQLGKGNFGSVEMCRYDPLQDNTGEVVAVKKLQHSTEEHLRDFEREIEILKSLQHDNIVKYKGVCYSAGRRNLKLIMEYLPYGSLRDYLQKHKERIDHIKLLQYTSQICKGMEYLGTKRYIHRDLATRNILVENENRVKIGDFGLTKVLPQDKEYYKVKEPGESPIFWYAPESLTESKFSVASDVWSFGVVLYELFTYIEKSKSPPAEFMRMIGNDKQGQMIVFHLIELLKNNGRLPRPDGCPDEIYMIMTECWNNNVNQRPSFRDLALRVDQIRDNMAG
UniProt P42224: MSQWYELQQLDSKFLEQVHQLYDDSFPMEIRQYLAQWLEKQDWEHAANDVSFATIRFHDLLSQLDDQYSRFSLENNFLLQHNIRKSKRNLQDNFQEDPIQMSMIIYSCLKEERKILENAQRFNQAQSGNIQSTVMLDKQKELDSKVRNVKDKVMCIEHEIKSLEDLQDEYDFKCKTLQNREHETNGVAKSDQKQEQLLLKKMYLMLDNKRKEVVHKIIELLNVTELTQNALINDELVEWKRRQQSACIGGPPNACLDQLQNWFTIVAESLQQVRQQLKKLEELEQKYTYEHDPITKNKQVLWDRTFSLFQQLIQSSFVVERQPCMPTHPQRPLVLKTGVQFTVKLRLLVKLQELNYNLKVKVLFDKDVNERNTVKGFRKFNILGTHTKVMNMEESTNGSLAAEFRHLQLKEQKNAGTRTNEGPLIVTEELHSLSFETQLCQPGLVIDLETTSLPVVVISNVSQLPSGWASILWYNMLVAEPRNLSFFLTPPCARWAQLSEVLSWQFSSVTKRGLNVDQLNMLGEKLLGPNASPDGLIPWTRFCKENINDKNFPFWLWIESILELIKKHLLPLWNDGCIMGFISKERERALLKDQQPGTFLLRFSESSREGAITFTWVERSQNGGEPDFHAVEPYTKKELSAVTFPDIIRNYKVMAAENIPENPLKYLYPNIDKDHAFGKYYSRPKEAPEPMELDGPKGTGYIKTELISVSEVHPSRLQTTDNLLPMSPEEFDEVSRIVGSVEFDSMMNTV

Legend:
STAT3-Y705F = STAT3-Y705F (UniProt P40763); assay: co-IP; co-IP / IP experiments of the supplementary figures with proteins expressed from plasmids; cells, tags and antibodies not shown
[1] = molecular target: Flag-tagged full-length STAT3 (UniProt P40763); assay: as above
[2] = molecular target: HA-tagged full-length JAK2 (UniProt O60674); assay: as above
HA-STAT1 = HA-STAT1 (UniProt P42224); assay: as above
[3] = molecular target: Flag-tagged full-length STAT3 (UniProt P40763); assay: co-IP; 293T cells transfected with tagged proteins (Myc-Wwox, Flag-STAT3, HA-JAK2); whole-cell lysates in IP lysis buffer (Pierce); IP with anti-Myc, anti-Flag M2 or anti-HA antibody overnight at 4 °C, Protein G Sepharose, washed three times with PBS; in one panel cells treated with IL-6 for the indicated time spans
[4] = molecular target: HA-tagged full-length JAK2 (UniProt O60674); assay: as above
[5] = molecular target: endogenous JAK2 (human (endogenous in MCF-10A, T47D, MCF-7)) (UniProt O60674); assay: co-IP; endogenous proteins; lysates of MCF-10A, MCF-7 and T47D cells; IP with anti-STAT3 or anti-JAK2 antibodies; in one panel MCF-7 cells transfected with Wwox siRNA and stimulated with IL-6
[6] = molecular target: endogenous STAT3 (human (endogenous in MCF-10A, MCF-7, T47D)) (UniProt P40763); assay: as above

binding (STAT3-Y705F): binds
binding [1]: binds
binding [2]: binds
binding (HA-STAT1): binds
binding [3]: binds
binding [4]: binds
B1: Myc-tagged full-length Wwox (WW domain-containing oxidoreductase) (protein, UniProt Q9NZC7 1-414)
chain: MAALRYAGLDDTDSEDELPPGWEERTTKDGWVYYANHTEEKTQWEHPKTGKRKRVAGDLPYGWEQETDENGQVFFVDHINKRTTYLDPRLAFTVDDNPTKPTTRQRYDGSTTAMEILQGRDFTGKVVVVTGANSGIGFETAKSFALHGAHVILACRNMARASEAVSRILEEWHKAKVEAMTLDLALLRSVQHFAEAFKAKNVPLHVLVCNAATFALPWSLTKDGLETTFQVNHLGHFYLVQLLQDVLCRSAPARVIVVSSESHRFTDINDSLGKLDFSRLSPTKNDYWAMLAYNRSKLCNILFSNELHRRLSPRGVTSNAVHPGNMMYSNIHRSWWVYTLLFTLARPFTKSMQQGAATTVYCAAVPELEGLGGMYFNNCCRCMPSPEAQSEETARTLWALSERLIQERLGSQSG

B2: Wwox T49A (protein, UniProt Q9NZC7 1-414)
chain: B1 chain with T49A
binding [2]: binds

binding [5]: binds
binding [6]: binds
B3: endogenous Wwox (protein, UniProt Q9NZC7 1-414)
chain: B1 chain

binding [1]: binds
B4: Wwox-Y33R (protein, UniProt Q9NZC7 1-414)
chain: B1 chain with Y33R

binding [2]: binds
B5: Wwox S14A (protein, UniProt Q9NZC7 1-414)
chain: B1 chain with S14A
